Assay results from the supplement of paper PMC7877785.
± gives the uncertainty stated by the source. The uncertainty is large for many entries.

Experiment: self-splicing fitness, log relative to wild type (ln ratio); higher = more splicing; Tetrahymena group I intron in knt gene, E. coli kanamycin selection, DiMSum; sequences stand for … in CUCUCU…GGAGGGAAAAGUUAUCAGGCAUGCACCUGGUAGCUAGUCUUUAAACCAAUAGAUUGCAUCGGUUUAAAAGGCAAGACCGUCAAAUUGCGGGAAAGGGGUCAACAGCCGUUCAGUACCAAGUCUCAGGGGAAACUUUGAGAUGGCCUUGCAAAGGGUAUGGUAAUAAGCUGACGGACAUGGUCCUAACCACGCAGCCAAGUCCUAAGUCAACAGAUCUUCUGUUGAUAUGGAUGCAGUUCACAGACUAAAUGUCGGUCGGGGAAGAUGUAUUCUUCUCAUAAGAUAUAGUCGGACCUCUCCUUAAUGGGAGCUAGCGGAUGAAGUGAUGCAACACUGGAGCCGCUGGGAACUAAUUUGUAUGCGAAAGUAUAUUGAUUAGUUUUGGAGUACUCGUGGUCG
Method in brief: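 Six replicate transformations of E. coli BL21(DE3) with a pET-22b(+) library were grown overnight at 37°C or 30°C. The library randomised all eight P1ex-region intron nucleotides, the intron lying in the knt kanamycin-resistance gene, and plates were LB agar with or without 25 μg/mL kanamycin plus 100 μg/mL carbenicillin, 50 μM IPTG and 0.2% rhamnose. Pooled colonies were amplicon-sequenced on an Illumina HiSeq 2500, and fitness is the DiMSum error-weighted combination of wild-type-normalised replicate fold changes, kanamycin versus none.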

Row | Sequence | self-splicing fitness (ln) (30 °C) | self-splicing fitness (ln) (37 °C)
1 | GUUCAGCAAUAUUACGGCCC | -0.59 ± 0.19 | 0.24 ± 0.24
2 | UUCGAGCAAUAUUACGUCGC | -2.09 ± 0.21 | -3.51 ± 0.6
3 | GAUUAGCAAUAUUACGCUAU | -2.97 ± 0.41 | -1.85 ± 0.81
4 | UCGCAGCAAUAUUACGCCCG |  | 0.00158 ± 0.65
5 | UUUGAGCAAUAUUACGGGAG | -3.55 ± 0.28 | -1.99 ± 0.19
6 | CGUGAGCAAUAUUACGCAGG | -1.54 ± 0.11 | -2.14 ± 0.15
7 | UCAGAGCAAUAUUACGCAGG | -5.53 ± 1 | 
8 | UCUUAGCAAUAUUACGGCCU |  | -2.15 ± 0.55
9 | GGUCAGCAAUAUUACGGGCU | -4.29 ± 0.52 | -2.66 ± 0.53
10 | UUGGAGCAAUAUUACGGAAG |  | -2.84 ± 0.53
11 | CUGUAGCAAUAUUACGCUAA | -2.84 ± 0.75 | -1.93 ± 0.51
12 | ACGAAGCAAUAUUACGUUCG | -1.3 ± 0.083 | -0.906 ± 0.11
13 | CGGGAGCAAUAUUACGCGCA | -3.88 ± 1.1 | 
14 | ACCGAGCAAUAUUACGCGCG | -4.42 ± 0.72 | -3.01 ± 0.63
15 | AGGGAGCAAUAUUACGAAAA | -4.19 ± 1 | -1.97 ± 0.66
16 | GCGGAGCAAUAUUACGAAAA | -0.135 ± 0.71 | -2.36 ± 0.64
17 | AGGGAGCAAUAUUACGCUCC | -1.12 ± 0.76 | -1.64 ± 0.69
18 | UCUUAGCAAUAUUACGGAUC | -4.04 ± 0.61 | 
19 | CGUCAGCAAUAUUACGUUGA | -3.04 ± 0.26 | -2.26 ± 0.19
20 | CUGGAGCAAUAUUACGUAAU |  | -0.797 ± 0.56
21 | CGGUAGCAAUAUUACGCUCA | -0.279 ± 0.15 | -0.399 ± 0.21
22 | UCAGAGCAAUAUUACGGACC | -3.8 ± 0.61 | -1.85 ± 0.81
23 | GGACAGCAAUAUUACGAUUU | 0.167 ± 0.047 | 0.417 ± 0.065

Record cards, as listed above:
UCUUAGCAAUAUUACGGAUC is entered as self-splicing fitness (ln) (30 °C): -4.04 ± 0.61
GCGGAGCAAUAUUACGAAAA is entered as self-splicing fitness (ln) (30 °C): -0.135 ± 0.71; self-splicing fitness (ln) (37 °C): -2.36 ± 0.64
GGACAGCAAUAUUACGAUUU is entered as self-splicing fitness (ln) (30 °C): 0.167 ± 0.047; self-splicing fitness (ln) (37 °C): 0.417 ± 0.065

The list continues:

Row | Sequence | self-splicing fitness (ln) (30 °C) | self-splicing fitness (ln) (37 °C)
24 | GACCAGCAAUAUUACGCUAC | -4.89 ± 0.51 | 
25 | GAGGAGCAAUAUUACGUACG |  | -1.87 ± 0.52
26 | GGUCAGCAAUAUUACGUCAC | -2.8 ± 0.51 | 
27 | AUAUAGCAAUAUUACGCUGG | -2.06 ± 0.2 | -1.51 ± 0.32
28 | UGUUAGCAAUAUUACGUAGA | -2.29 ± 0.12 | -0.809 ± 0.14
29 | GUGGAGCAAUAUUACGCCUG |  | -3.12 ± 0.61
30 | GGAUAGCAAUAUUACGGAUA | -2.62 ± 0.56 | 
31 | AGUCAGCAAUAUUACGGUCU | -0.851 ± 0.06 | -0.146 ± 0.068
32 | UGCUAGCAAUAUUACGAUGC |  | -4.34 ± 0.59
33 | AGCGAGCAAUAUUACGUUGA | -4.28 ± 0.51 | 
34 | UGAGAGCAAUAUUACGGCAC | -2.21 ± 1.1 | -2.59 ± 0.54
35 | CGGUAGCAAUAUUACGCGAC | -2.79 ± 1.2 | -0.988 ± 0.68
36 | UACGAGCAAUAUUACGUGAA |  | -3.29 ± 0.52
37 | AACGAGCAAUAUUACGAGUU | -3.48 ± 0.32 | -2.1 ± 0.22
38 | CUUCAGCAAUAUUACGCCCU | -4.01 ± 0.53 | -1.76 ± 0.58
39 | UGGCAGCAAUAUUACGAAGC | -3.46 ± 0.75 | 
40 | UUCUAGCAAUAUUACGGCUA | -3.38 ± 0.63 | -3.86 ± 1
41 | UUUUAGCAAUAUUACGAAAC | -3.34 ± 0.78 | 
42 | AGCUAGCAAUAUUACGCUCC | -2.79 ± 1.2 | -1.49 ± 0.59
43 | CCGUAGCAAUAUUACGACCA |  | -2.5 ± 0.64
44 | CUGUAGCAAUAUUACGAGUA | -3.34 ± 1 | -4.15 ± 1
45 | GUGGAGCAAUAUUACGUCGC | -3.19 ± 0.57 | 
46 | UCUGAGCAAUAUUACGGCUA | -3.33 ± 0.42 | -2.58 ± 0.29

Row | Sequence | self-splicing fitness (ln) (30 °C) | self-splicing fitness (ln) (37 °C)
47 | UCAUAGCAAUAUUACGCACG | -2.05 ± 0.11 | -0.462 ± 0.13
48 | AUAUAGCAAUAUUACGAAUA |  | -2.27 ± 0.66
49 | AGAGAGCAAUAUUACGAGUA | -3.32 ± 0.52 | 
50 | CUAGAGCAAUAUUACGGUAC |  | -3.82 ± 0.6
51 | CAGAAGCAAUAUUACGAUGU | -3.37 ± 0.23 | -1.97 ± 0.2
52 | UCGCAGCAAUAUUACGGGCC | -2.06 ± 0.57 | -2.07 ± 1.1
53 | UUUGAGCAAUAUUACGCCAC | -2.72 ± 0.57 | 
54 | CUCUAGCAAUAUUACGGUAG | -4.49 ± 0.33 | -1.79 ± 0.23
55 | GGGGAGCAAUAUUACGUGGU | -1.73 ± 0.65 | -2.85 ± 0.76
56 | CGUGAGCAAUAUUACGGAAC | -3.57 ± 0.75 | 
57 | UCCGAGCAAUAUUACGUAAA |  | -3.53 ± 1
58 | ACAAAGCAAUAUUACGUGAG | -0.439 ± 0.049 | -0.4 ± 0.079
59 | UCGGAGCAAUAUUACGAACC | -3.7 ± 1.1 | -2.47 ± 1.1
60 | AUACAGCAAUAUUACGAAGC | -3.01 ± 0.56 | -2.67 ± 0.62
61 | AGUCAGCAAUAUUACGGAGA | -4.41 ± 0.51 | -1.53 ± 0.38
62 | AGAAAGCAAUAUUACGGAGG | -3.33 ± 0.16 | -2.72 ± 0.3
63 | GGCGAGCAAUAUUACGGUUU | -1.06 ± 0.076 | 0.0414 ± 0.11
64 | UUACAGCAAUAUUACGAGGC | -2.84 ± 0.53 | 
65 | AACGAGCAAUAUUACGUGUU | -4.56 ± 0.51 | 
66 | UUCAAGCAAUAUUACGACCC | -2.42 ± 1.2 | -0.288 ± 0.52
67 | UAGUAGCAAUAUUACGAAUC |  | -2.79 ± 1.1
68 | AGGGAGCAAUAUUACGUCCC | -1.52 ± 0.71 | 0.218 ± 0.61
69 | GCAGAGCAAUAUUACGGCCU | -2.37 ± 0.78 | 

Row | Sequence | self-splicing fitness (ln) (30 °C) | self-splicing fitness (ln) (37 °C)
70 | GUGCAGCAAUAUUACGAUUG | -3.67 ± 0.62 | -2.04 ± 0.56
71 | UAGCAGCAAUAUUACGUACC |  | -1.77 ± 0.7
72 | AUGGAGCAAUAUUACGAUUA |  | -3.21 ± 0.75
73 | CUUGAGCAAUAUUACGCCGU |  | -1.99 ± 0.66
74 | UUCAAGCAAUAUUACGUAGG | -1.53 ± 0.08 | -0.995 ± 0.13
75 | UUUCAGCAAUAUUACGCGAA | -2.03 ± 0.14 | -1.21 ± 0.14
76 | GAGAAGCAAUAUUACGCGUA | -1.03 ± 0.12 | -1.1 ± 0.13
77 | CCCCAGCAAUAUUACGGCCC | -2.25 ± 0.59 | 
78 | CGUAAGCAAUAUUACGUUAC | -3.56 ± 0.26 | -2.03 ± 0.28
79 | GUUGAGCAAUAUUACGUGCU |  | -1.9 ± 0.68
80 | UAAAAGCAAUAUUACGCCAC | -3.09 ± 0.53 | 
81 | CUCCAGCAAUAUUACGCAAA | -3.21 ± 0.21 | -2.68 ± 0.26
82 | UUCUAGCAAUAUUACGAGCU | -3.18 ± 0.62 | -4.11 ± 0.72
83 | AUUGAGCAAUAUUACGGUAG |  | -3.86 ± 0.59
84 | UUUAAGCAAUAUUACGAAGU | -2.65 ± 1.1 | 
85 | CUCCAGCAAUAUUACGUUCG | -3.41 ± 0.13 | -2.39 ± 0.17
86 | UGUGAGCAAUAUUACGAUUC | -3.16 ± 1 | -2.99 ± 0.61
87 | CGCGAGCAAUAUUACGGACA | -2.78 ± 0.64 | 
88 | UUUUAGCAAUAUUACGCUAA | -2.25 ± 1.1 | -2.55 ± 0.63
89 | UCUUAGCAAUAUUACGAGAA |  | -2.3 ± 1.1

An excerpt of these results, as a markdown table:

| Row | Sequence | self-splicing fitness (ln) (30 °C) | self-splicing fitness (ln) (37 °C) |
| --- | --- | --- | --- |
| 84 | UUUAAGCAAUAUUACGAAGU | -2.65 ± 1.1 |  |
| 89 | UCUUAGCAAUAUUACGAGAA |  | -2.3 ± 1.1 |
